For the assay, the system named is HEK293A TEAD-LUC reporter. Briefly: TEAD-luciferase reporter activity (YAP activation), robust Z score vs plate; higher = stronger YAP/TEAD activation. The following applies: 24 h.

Structures are written as SMILES. The list shows a part of the results. Single values are uncertain here, since repeats match poorly.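 In a drug-repurposing library screen, luminescence reads luciferase driven by eight TEAD-binding elements, stably integrated into human kidney-derived cells. Compounds scoring over five robust Z scores above the plate mean are called hits.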

On to `O=C1OC2(c3cc(I)c(O)c(I)c3Oc3c2cc(I)c(O)c3I)c2c(Cl)c(Cl)c(Cl)c(Cl)c21` [Provecta], for which the TEAD-luciferase reporter activity (compound concentration: 200 nM) is inactive: -2.06, the TEAD-luciferase reporter activity (compound concentration: 2 uM) is inactive: -1.2 and the TEAD-luciferase reporter activity (compound concentration: 10 uM) is inactive: 3.34.
Turning to `CCOC(CN1C(=O)[C@](CC(=O)Nc2ccc(C)cc2)(NC(=O)Nc2ccc(C)cc2)c2ccccc21)OCC`, the TEAD-luciferase reporter activity is, setting by setting: (compound concentration: 200 nM) inactive: -0.473; (compound concentration: 2 uM) inactive: -0.205; (compound concentration: 10 uM) inactive: 0.577.
Consider `O=C(c1ccc2c(c1)OCO2)N1CCCCC1`, for which the TEAD-luciferase reporter activity runs as follows: (compound concentration: 200 nM) active: 5.27; (compound concentration: 2 uM) inactive: -0.46; (compound concentration: 10 uM) inactive: 0.793.
As for `O=C1NCc2ccccc2CC12CCN(Cc1ccc(F)c(Cl)c1)C2` (stereo unspecified), the TEAD-luciferase reporter activity is, setting by setting: (compound concentration: 200 nM) inactive: 0.709; (compound concentration: 10 uM) inactive: 1.47.
Turning to `Cc1cccc(O)c1`, the TEAD-luciferase reporter activity (compound concentration: 200 nM) is inactive: -0.107, the TEAD-luciferase reporter activity (compound concentration: 2 uM) was inactive: 0.0884 and the TEAD-luciferase reporter activity (compound concentration: 10 uM) is inactive: 0.703.
With `O=C1NCCCN1C1CCN(Cc2cccc3ccccc23)CC1`, the TEAD-luciferase reporter activity was inactive: -0.0378 (compound concentration: 200 nM) and inactive: -0.683 (compound concentration: 10 uM).
Regarding `CCOC(=O)c1c(C(=O)Cc2c(CCN(C)C)cc3c(c2OC)OCO3)ccc(OC)c1OC`, the TEAD-luciferase reporter activity is, setting by setting: (compound concentration: 200 nM) inactive: -1.48; (compound concentration: 2 uM) inactive: -0.0859; (compound concentration: 10 uM) inactive: 0.481.
In the case of `CC(=O)OCC(=O)[C@@]1(O)[C@H](C)C[C@H]2C3C[C@H](F)C4=CC(=O)C=CC4(C)C3[C@@H](O)CC21C` (stereo partly specified), the TEAD-luciferase reporter activity by setting is: (compound concentration: 200 nM) inactive: -0.193; (compound concentration: 2 uM) inactive: 0.575; (compound concentration: 10 uM) inactive: 0.578.
On to `CN(CCOP(=O)(O)O)C(=N)N` [Creatinol phosphate], for which the TEAD-luciferase reporter activity (compound concentration: 200 nM) is inactive: -0.486 and the TEAD-luciferase reporter activity (compound concentration: 10 uM) is inactive: 0.676.
For the compound `CN(C)CCCC(=O)N1CCC(n2c(=O)[nH]c3ccccc32)CC1`, the TEAD-luciferase reporter activity (compound concentration: 200 nM) is inactive: 2.07 and the TEAD-luciferase reporter activity (compound concentration: 10 uM) is inactive: 2.24.
As to `CCCCC/C(=C\C=C\C(=O)N[C@H](C)CCCc1cccnc1)c1ccc(OC)cc1`, the TEAD-luciferase reporter activity is inactive: -0.587 (compound concentration: 200 nM), inactive: -0.341 (compound concentration: 2 uM) and inactive: -0.745 (compound concentration: 10 uM).
Take `CCN(CC)CCNC(=O)c1c(C)[nH]c(/C=C2\C(=O)Nc3ccc(-c4csc(-c5ccccc5)n4)cc32)c1C`: the TEAD-luciferase reporter activity was inactive: -0.22 (compound concentration: 200 nM), inactive: 2.08 (compound concentration: 2 uM) and inactive: 1.23 (compound concentration: 10 uM).
As to `CCN(CC)CCCC(C)Nc1c2ccc(Cl)cc2nc2ccc(OC)cc12` (stereo unspecified) [quinacrine], the TEAD-luciferase reporter activity (compound concentration: 2 uM) is inactive: 0.831.
Take `CCN(CC)CCCC(C)Nc1c2ccc(Cl)cc2nc2ccc(OC)cc12` (stereo unspecified): the TEAD-luciferase reporter activity (compound concentration: 200 nM) was inactive: 1.16 and the TEAD-luciferase reporter activity (compound concentration: 10 uM) is inactive: 2.
Taken in the same sequence, the figures for `CCCCCN(CCCOC)C(=O)C(CCC(=O)O)NC(=O)c1ccc(Cl)c(Cl)c1` (stereo unspecified) [Loxiglumide] were inactive: -0.032 and inactive: -0.921.
For `CCCCCN(CCCOC)C(=O)C(CCC(=O)O)NC(=O)c1ccc(Cl)c(Cl)c1` (stereo unspecified) [loxiglumide], under “compound concentration: 2 uM”, the TEAD-luciferase reporter activity is inactive: 0.857.
Regarding `O=C(O)CCC(CP(=O)(O)Cc1c(F)c(F)c(F)c(F)c1F)C(=O)O` (stereo unspecified), the TEAD-luciferase reporter activity runs as follows: (compound concentration: 200 nM) inactive: -0.32; (compound concentration: 2 uM) inactive: -0.889; (compound concentration: 10 uM) inactive: 0.259.
Turning to `CCCCC[C@H](O)CC[C@@H]1[C@H]2Cc3cccc(OCC(=O)O)c3C[C@H]2C[C@H]1O` [Treprostinil], the TEAD-luciferase reporter activity is inactive: -1.13 (compound concentration: 200 nM) and inactive: 2.07 (compound concentration: 10 uM).
As to `CCCCC[C@H](O)CC[C@@H]1[C@H]2Cc3cccc(OCC(=O)O)c3C[C@H]2C[C@H]1O` [Trepostinil], for the setting “compound concentration: 2 uM”, the TEAD-luciferase reporter activity was inactive: -0.124.
As for `OCc1cc([C@@H](O)CNCCCCCCOCCOCc2c(Cl)cccc2Cl)ccc1O` [vilanterol trifenatate], the TEAD-luciferase reporter activity is inactive: -0.269 (compound concentration: 200 nM), inactive: -0.276 (compound concentration: 2 uM) and inactive: -1.06 (compound concentration: 10 uM).
Taken in the same sequence, the figures for `COc1ccc(/C=C/C(=O)O)cc1OC` were inactive: 0.0452, inactive: -1.2 and inactive: -1.12.
`CCN(CC)CC(O)CNC(=O)c1c(OC)c2ccccc2n1-c1ccccc1` (stereo unspecified): the TEAD-luciferase reporter activity is inactive: -1.22 (compound concentration: 200 nM), inactive: -1.35 (compound concentration: 2 uM) and inactive: -1.04 (compound concentration: 10 uM).
`CN(C)c1nc(Cc2ccc(NC(=O)c3ccc4ccccc4c3)cc2)nc(Cl)c1CC(=O)O`: the TEAD-luciferase reporter activity by setting is: (compound concentration: 200 nM) inactive: -1.18; (compound concentration: 2 uM) inactive: -0.634; (compound concentration: 10 uM) inactive: 2.15.
For `O=C(C[n+]1ccn(CC(OCc2ccc(Cl)cc2Cl)c2ccc(Cl)cc2Cl)c1)c1ccc(F)cc1` (stereo unspecified), the TEAD-luciferase reporter activity reads like this: (compound concentration: 200 nM) inactive: -1.65; (compound concentration: 2 uM) inactive: -0.177; (compound concentration: 10 uM) inactive: -1.
Turning to `CCn1c(=O)[nH]c2ccccc21`, the TEAD-luciferase reporter activity runs as follows: (compound concentration: 200 nM) inactive: 0.161; (compound concentration: 2 uM) inactive: -2.34; (compound concentration: 10 uM) inactive: -0.915.
As for `C[C@@H]1C(=O)NC2=Nc3cccc(Cl)c3CN21` [quazi], the TEAD-luciferase reporter activity (compound concentration: 2 uM) was inactive: -1.15.
For `C[C@@H]1C(=O)NC2=Nc3cccc(Cl)c3CN21` [Quazi], the TEAD-luciferase reporter activity is inactive: 0.249 (compound concentration: 200 nM) and inactive: -0.384 (compound concentration: 10 uM).
`CCCCC(=O)O[C@]1(C(=O)CO)[C@@H](C)CC2C3CCC4=CC(=O)C=C[C@]4(C)[C@@]3(F)[C@@H](O)C[C@@]21C` (stereo partly specified) [dexamethasone valerate]: the TEAD-luciferase reporter activity reads like this: (compound concentration: 200 nM) inactive: -0.342; (compound concentration: 2 uM) inactive: 0.614; (compound concentration: 10 uM) inactive: 1.97.
For `O=C(O)CCC(=O)C(=O)O` [2-Ketoglutaric acid], the TEAD-luciferase reporter activity by setting is: (compound concentration: 200 nM) inactive: 1.11; (compound concentration: 2 uM) inactive: -1.28; (compound concentration: 10 uM) inactive: -1.36.

(Values after the supplement of paper PMC10735217.)
